Percent effect of library compounds

By UniProt entry, the sequences of proteins in these tests, tags left out. Residues count along the entry.
UniProt Q4DA54, 1-478: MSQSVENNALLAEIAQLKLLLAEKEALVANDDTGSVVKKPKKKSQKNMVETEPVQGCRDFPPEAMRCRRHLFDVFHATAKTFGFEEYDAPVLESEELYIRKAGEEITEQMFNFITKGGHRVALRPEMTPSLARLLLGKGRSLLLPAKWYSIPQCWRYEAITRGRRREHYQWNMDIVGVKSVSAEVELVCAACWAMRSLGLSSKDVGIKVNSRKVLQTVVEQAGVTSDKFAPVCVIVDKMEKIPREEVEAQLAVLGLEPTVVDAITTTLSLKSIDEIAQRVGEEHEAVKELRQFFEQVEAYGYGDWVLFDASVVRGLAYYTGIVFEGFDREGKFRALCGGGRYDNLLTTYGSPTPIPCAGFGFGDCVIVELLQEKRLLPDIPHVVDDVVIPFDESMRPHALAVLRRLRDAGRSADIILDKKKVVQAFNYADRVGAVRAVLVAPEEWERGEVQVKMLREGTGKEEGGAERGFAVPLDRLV

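Enzyme assay of histidyl-tRNA synthetase; the read-out is not stated. Target: Histidine-tRNA ligase, Trypanosoma cruzi CL Brener (UniProt Q4DA54). Compounds at 30 µM. Direction is inferred from retests: higher values go with stronger inhibition. Size under these conditions: about 69,000 compounds, about 31 of them at 50% or above in at least one test.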

Results are given as percent effect. The controls that fix the scale are not given in the record; negative values are as filed. The compounds are a random part of those screened.

| SMILES | Percent Effect |
|---|---|
| `O=C(NCC1CCOC1)Nc1ccc(OCC(F)(F)F)nc1` (centres unmarked) | 2.29% |
| `Cc1ncsc1COC(=O)c1cccc2c1OCCO2` | 7.035% |
| `CSc1ccc(NC(=O)Nc2ccc3c(c2)N(S(C)(=O)=O)CC3)cc1` | -14.13% |
| `CC(C)c1nc(CN(C)Cc2cnc(N3CCOCC3)nc2)no1` | 9.497% |
| `O=c1c2sccc2nc2n1CCN(Cc1cccs1)CC2` | -0.5405% |
| `CN(C)S(=O)(=O)NCC1OCCc2cn(CC3CCOCC3)nc21` (centres unmarked) | -1.149% |
| `CCN(Cc1ccco1)C(=O)C1=NN(c2ccccc2)C(=O)CN1` | 9.804% |
| `O=C(NCc1cccs1)[C@H]1CC[C@@H]2[C@@H](CCN2C2CCC2)O1` | 9.756% |
| `Cc1ccc([C@]2(O)CC[C@H]3CN(Cc4ccccc4F)C[C@H]32)nc1` | 7.778% |
| `COc1ccccc1CC(=O)NS(=O)(=O)c1ccc(C(N)=O)cc1` | 2.29% |
| `CC(C)C(=O)N1CCC(c2nc3c([nH]2)CCCNC3=O)CC1` | 5.6% |
| `CN1CC2(CCN(CCCOCc3ccccc3)CC2)OC1=O` | 5.025% |
| `Cn1c(Cn2ccnc2)nnc1C1CCN(C(=O)c2cccnc2)CC1` | 11.06% |
| `Cc1cnn(CCC(=O)NS(=O)(=O)N2CCCc3ccccc32)c1` | 0% |
| `Cc1cnc(N2CCCC3(COCCN(c4ccc(C)nn4)C3)C2)nc1` (centres unmarked) | 11.06% |
| `Cc1ccc2c(c1)c(CNC(=O)C1CC(=O)N(CCN(C)C)C1)nn2C` (centres unmarked) | 2.273% |
| `Cc1c(C(=O)N2CCOCC2)nnn1-c1ccc2ncccc2c1` | 4.972% |
| `CCN(CC1CCOC1)C(=O)c1cc(Cl)c2c(c1)OCO2` (centres unmarked) | 2.89% |
| `COCC(=O)Nc1nnc2n(Cc3cccc(OC)c3)[nH]c(C)c1-2` | 11.92% |
| `COCCc1noc(CNC(=O)C2CC(=O)N(C(C)(C)C)C2)n1` (centres unmarked) | 6.061% |
| `CC(C)CN1CCC(N2CCC(C(=O)N(C)C)CC2)CC1` | 6.145% |
| `CCOCc1nc2c(c(NCc3cc(C)on3)n1)CCN(C(C)=O)CC2` | 0.8403% |
| `O=C(CCc1ccccc1)N1CCC(N2CCNC2=O)CC1` | 1.132% |
| `COCCCN(Cc1ccncc1)c1cc(C)ncn1` | -1.01% |
| `O=c1n(Cc2cccc(C(F)(F)F)c2)nc2ncccn12` | 10% |
| `CC1CN(C)CCN1C(=O)c1cccn1Cc1ccncc1` (centres unmarked) | 7.879% |
| `Fc1cccc(OC2CCN(Cc3ncc[nH]3)CC2)c1` | 0.7605% |
| `CN(CC(O)C1CC1)C(=O)c1ccc(-c2nc(C3CC3)n[nH]2)cc1` (centres unmarked) | 10.71% |
| `CC(C)NC(=O)N1CCCn2cnc(CO)c2C1` | 6.03% |
| `Cn1cnnc1C1CCCN(C(=O)c2cc3ccccc3[nH]2)C1` (centres unmarked) | 9.038% |
| `Cc1nc2c(c(N3CCCOCC3)n1)CCN(C(=O)N1CCCC1)CC2` | 0.5405% |
| `Cc1ccncc1C(=O)N1CCCC(C(=O)CCc2ccccc2)C1` (centres unmarked) | -1.22% |
| `Cc1nc(-n2cnnc2)ccc1-c1cccc2c1CCNC2` | 5.978% |
| `COc1ncc(CN2C[C@@H]3C[C@@H](O)CN3C[C@@H]2Cc2ccccc2)cn1` | -1.429% |
| `CCc1nn(C)c(CC)c1CNC(=O)Nc1cccc([S+](C)[O-])c1` (centres unmarked) | 4.202% |
| `CN(CC(=O)N1CCCC1)C(=O)c1ccccc1F` | 11.31% |
| `CCOCCN1CCN(CC2(O)CCCCC2)CC1` | -3.061% |
| `O=C([C@H]1COC[C@H]2CN(C3CCOCC3)C[C@H]21)N1CCC(F)CC1` | 3.093% |
| `CC(C)Cc1nc(CNCc2cccc(N3CCCC3=O)c2)no1` | 4.878% |
| `O=C(NCCCc1ccc(O)cc1)C1(O)Cc2ccccc2C1` | -2.89% |
| `O=C(NCc1nn(-c2ccccc2)c2c1CCC2)NCC1COCCO1` (centres unmarked) | 7.059% |
| `Cc1cc(N2CCN(C(=O)[C@@H]3C[C@@H]4C=C[C@H]3C4)CC2)nc2ccccc12` | 13.41% |
| `O=C(c1ccoc1)N1CCC(NCc2cccnc2)CC1` | 5.172% |
| `COC(=O)Cn1c(=O)nc2n1C(=O)N(c1ccc(C)cc1)C2` | 0% |
| `Cc1nnc2n1CCN(Cc1csc(-c3cnn(C)c3)n1)C2` | -1.058% |
| `Cn1ncc2c(NCC3CCS(=O)(=O)C3)nc(-c3ccncc3)nc21` (centres unmarked) | -4.255% |
| `CCOc1ccc(CC(=O)Nc2cnccc2SCCCO)cc1` | -4.04% |
| `Cc1cccc(OCCNC(=O)C(C)S(=O)(=O)c2ccccn2)c1` (centres unmarked) | 1.724% |
| `COc1ccccc1CCNC(=O)N1CCC(n2cncn2)CC1` | 4.298% |
| `O=C(CNC(=O)N1CCN(c2cccc(Cl)c2)CC1)Nc1ccccn1` | 3.093% |
| `CO[C@@H]1CC[C@H]2[C@H]1OCCN2S(=O)(=O)C1CC1` | 1.905% |
| `CNC(=O)C(C)(C)N1CCC[C@H]1C(=O)NC(C)(C)C` | 1.98% |
| `CCc1nc(CN(C)C2CCN(CCS(C)(=O)=O)C2)no1` (centres unmarked) | 2.642% |
| `Cc1noc2ncc(C(=O)N3CCCC3c3cnn(C)c3)cc12` (centres unmarked) | 0% |
| `CCC1=N[C@@]2(CC[C@@H]3CN(C(=O)NCc4ccccc4)C[C@@H]32)C(=O)N1C` | 3.825% |
| `CCc1noc(CN2CCCC2c2noc(C3CC3)n2)n1` (centres unmarked) | -3.759% |
| `CC(C)N(Cc1cccc(Cl)c1)Cc1nnsc1Cl` | 8.621% |
| `CCN1CCNC(=O)C12CCN(S(=O)(=O)c1ccc(OC)cc1)CC2` | 11.65% |
| `Cc1ccc2nc(C)cc(NCCNS(=O)(=O)c3cccnc3)c2c1` | -0.7752% |
| `Cc1cc(F)ccc1N1CCCC(NC2CCSCC2)C1=O` (centres unmarked) | 5.752% |
| `O=C(NCCn1ccc(-c2ccccn2)n1)C1CCC1` | 4% |

Once more, the final 3:

{"smiles": "Cc1ccc2nc(C)cc(NCCNS(=O)(=O)c3cccnc3)c2c1", "Percent Effect": -0.7752}
{"smiles": "Cc1cc(F)ccc1N1CCCC(NC2CCSCC2)C1=O", "stereo": "centres unmarked", "Percent Effect": 5.752}
{"smiles": "O=C(NCCn1ccc(-c2ccccn2)n1)C1CCC1", "Percent Effect": 4}

The values are deposited in ChEMBL (CHEMBL3988442, “University of Dundee, Small-Polar-MMV Screening Library” (2021)).